# PubChem BioAssay AID1159578, Peter MacCallum Cancer Centre – 2015
# Test: 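Knock-downs that alter how fast lymphatic endothelial cells migrate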 (primary screen)
# Cell system: human lymphatic endothelial cells
# Reagent: siRNA pool against human genes, 40 nM
# Duration: 48 h after transfection
# Detection: 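High-content imaging of dye-stained cells in a scratch assay measures filled wound area and nuclei per well; duplicate means given as ratio to mock and robust z-score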
# Direction: migration robust z-score: higher = faster migration into the scratch; nuclei per well: higher = more cells in the well
# Rule for the call: 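Migration changed when robust z exceeds 2 or falls below -2 and mean nuclei number is at least 3300; otherwise not called changed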
# Calls: active = migration changed; inactive = no migration change, or too few cells
# The deposit covers about 18,000 reagents; this is a random part of them. In the full data, about 1,030 (5.7%) were called active. 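Inactive calls also include pools with fewer than 3300 nuclei, whose migration was not assessed.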 The raw values are shown without normalisation. Not all columns of the deposit are shown.
target,migration robust z-score,migration class with cell-count check,"nuclei per well, duplicate mean",Call
CASS4 (Cas scaffold protein family member 4),-1.62,migration z between -2 and 2; enough cells,6076,inactive
STK16 (serine/threonine kinase 16),-0.57,migration z between -2 and 2; enough cells,5004,inactive
SERPINB11 (serpin family B member 11),0.94,migration z between -2 and 2; enough cells,6147,inactive
ITFG1 (integrin alpha FG-GAP repeat containing 1),0.83,migration z between -2 and 2; enough cells,5636,inactive
TSHZ1 (teashirt zinc finger homeobox 1),0.3,migration z between -2 and 2; enough cells,6574,inactive
CD14 (CD14 molecule),-0.6,migration z between -2 and 2; enough cells,7358,inactive
ICAM3 (intercellular adhesion molecule 3),-0.4,migration z between -2 and 2; enough cells,5924,inactive
TMEM169 (transmembrane protein 169),1.52,migration z between -2 and 2; enough cells,7248,inactive
TSPOAP1 (TSPO associated protein 1),-0.32,migration z between -2 and 2; enough cells,6379,inactive
KLK1 (kallikrein 1),0.78,migration z between -2 and 2; enough cells,5262,inactive
KLHL30 (kelch like family member 30),2,migration z between -2 and 2; enough cells,4782,inactive
ATG16L2 (autophagy related 16 like 2),-0.48,migration z between -2 and 2; enough cells,5658,inactive
CCDC93 (CCC complex scaffolding subunit CCDC93),1.15,migration z between -2 and 2; enough cells,5510,inactive
SERHL2 (serine hydrolase like 2),-0.62,migration z between -2 and 2; enough cells,4965,inactive
CALD1 (caldesmon 1),0.37,migration z between -2 and 2; enough cells,6100,inactive
MAGEA9 (MAGE family member A9),-1.4,migration z between -2 and 2; enough cells,6017,inactive
STARD7 (StAR related lipid transfer domain containing 7),-0.4,migration z between -2 and 2; enough cells,3882,inactive
OR51V1 (olfactory receptor family 51 subfamily V member 1),0.74,migration z between -2 and 2; enough cells,5141,inactive
C8G (complement C8 gamma chain),-2,migration z between -2 and 2; enough cells,6988,inactive
MAP3K13 (mitogen-activated protein kinase kinase kinase 13),-1.09,migration z between -2 and 2; enough cells,4131,inactive
CTSC (cathepsin C),0.99,migration z between -2 and 2; enough cells,5688,inactive
DNAJC13 (DnaJ heat shock protein family (Hsp40) member C13),1.52,migration z between -2 and 2; enough cells,6678,inactive
OR2T2 (olfactory receptor family 2 subfamily T member 2),-4.24,under 3300 nuclei; migration not judged,1904,inactive
MRPL4 (mitochondrial ribosomal protein L4),-1.01,migration z between -2 and 2; enough cells,4393,inactive
ZNF831 (zinc finger protein 831),-0.89,migration z between -2 and 2; enough cells,5550,inactive
FKBP14 (FKBP prolyl isomerase 14),0.68,migration z between -2 and 2; enough cells,6612,inactive
SDC2 (syndecan 2),1.14,migration z between -2 and 2; enough cells,6987,inactive
PDP2 (pyruvate dehydrogenase phosphatase catalytic subunit 2),-1.14,migration z between -2 and 2; enough cells,6134,inactive
TACR1 (tachykinin receptor 1),1.32,migration z between -2 and 2; enough cells,6944,inactive
STX7 (syntaxin 7),0.66,migration z between -2 and 2; enough cells,5578,inactive
OLFML2B (olfactomedin like 2B),0.6,migration z between -2 and 2; enough cells,6296,inactive
ENAM (enamelin),-1.83,migration z between -2 and 2; enough cells,5840,inactive
C1QTNF12 (C1q and TNF related 12),-0.13,migration z between -2 and 2; enough cells,7134,inactive
OSBP (oxysterol binding protein),0.52,migration z between -2 and 2; enough cells,5654,inactive
ADAP1 (ArfGAP with dual PH domains 1),1.77,migration z between -2 and 2; enough cells,5746,inactive
HMGB4 (high mobility group box 4),-0.44,migration z between -2 and 2; enough cells,7112,inactive
SCYL2 (SCY1 like pseudokinase 2),1.55,migration z between -2 and 2; enough cells,4853,inactive
COMMD10 (COMM domain containing 10),0.76,migration z between -2 and 2; enough cells,5314,inactive
WDR73 (WD repeat domain 73),-1.43,migration z between -2 and 2; enough cells,6726,inactive
"ETS2 (ETS proto-oncogene 2, transcription factor)",-0.36,migration z between -2 and 2; enough cells,4503,inactive
FAM171A1 (family with sequence similarity 171 member A1),-0.18,migration z between -2 and 2; enough cells,5946,inactive
GYPA (glycophorin A (MNS blood group)),-0.46,migration z between -2 and 2; enough cells,6498,inactive
PARP10 (poly(ADP-ribose) polymerase family member 10),0.86,migration z between -2 and 2; enough cells,6190,inactive
ULK3 (unc-51 like kinase 3),0.65,migration z between -2 and 2; enough cells,7216,inactive
SPATA21 (spermatogenesis associated 21),0.7,migration z between -2 and 2; enough cells,5706,inactive
P2RY8 (P2Y receptor family member 8),-0.47,migration z between -2 and 2; enough cells,5490,inactive
H1-8 (H1.8 linker histone),0.16,migration z between -2 and 2; enough cells,5690,inactive
SHROOM4 (shroom family member 4),2.21,migration z above 2; enough cells,5366,active
CARM1 (coactivator associated arginine methyltransferase 1),-0.68,migration z between -2 and 2; enough cells,5083,inactive
STK33 (serine/threonine kinase 33),-3.17,migration z below -2; enough cells,3798,active
OBI1 (ORC ubiquitin ligase 1),0.36,migration z between -2 and 2; enough cells,5490,inactive
MAN2C1 (mannosidase alpha class 2C member 1),0.73,migration z between -2 and 2; enough cells,5402,inactive
POP5 (POP5 ribonuclease P/MRP subunit),0.02,migration z between -2 and 2; enough cells,5882,inactive
STK39 (serine/threonine kinase 39),-1.25,migration z between -2 and 2; enough cells,4227,inactive
GIN1 (gypsy retrotransposon integrase 1),-0.11,migration z between -2 and 2; enough cells,4515,inactive
ZNF141 (zinc finger protein 141),-1.75,migration z between -2 and 2; enough cells,4274,inactive
"PSMD2 (proteasome 26S subunit ubiquitin receptor, non-ATPase 2)",-0.26,migration z between -2 and 2; enough cells,4388,inactive

Taken from above.
Result of P2RY8 (P2Y receptor family member 8) in “migration robust z-score”: -0.47
For “migration robust z-score”, ZNF831 (zinc finger protein 831) shows -0.89
Result for STX7 (syntaxin 7) under “migration class with cell-count check”: migration z between -2 and 2; enough cells
